{"source": "PubChem BioAssay AID445", "about": "(National Center for Advancing Translational Sciences (NCATS), 2006)", "experiment": "IkB Signaling", "conditions": "ABC-DLBCL IkBa-CBG/CBR dual luciferase ratio (green luciferase fused to IkBa over red control in OCI-Ly3 lymphoma cells), 4 h", "in_short": "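Curves were fitted separately to fusion (green), unfused (red) and ratio luminescence, then classed by r2, magnitude and activity. Cells: OCI-Ly3, 4 h compound plus doxycycline at 37C; 10 uM MG-132 defined full response.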", "key": {"[1]": {"conditions": "measured here: control luc red channel unless noted"}}, "note": "Some of the results follow. These are further read-outs of the screen, such as a control signal, another cell line or another target. No call is given for them. Most of these compounds were active or inconclusive in the main read-out, so they are no random draw. Potencies come from curve fits of mixed quality, noted in brackets."}
{"smiles": "O=C(O)c1c(-c2ccccc2)oc2ccc(OCc3ccc(Cl)c(Cl)c3)cc12", "values": [{"measurement": "AC50", "setting": "[1]", "result": "15.8 µM [falling, partial curve]"}]}
{"smiles": "Cc1ccc(Nc2nc(N)nc(CN3CCN(Cc4ccc5c(c4)OCO5)CC3)n2)cc1", "values": [{"measurement": "AC50", "setting": "[1]", "result": "15.8 µM [falling, partial curve]"}]}
{"smiles": "COc1ccc(S(=O)(=O)Nc2ccc3oc4c(c3c2)C(=O)CC(C)(C)C4)cc1", "values": [{"measurement": "AC50", "setting": "[1]", "result": "10 µM [falling, partial curve, poor fit]"}]}
{"smiles": "O=c1[nH]c2cc3c(cc2cc1CN(Cc1ccccc1)Cc1nnnn1Cc1ccco1)OCCO3", "values": [{"measurement": "AC50", "setting": "[1]", "result": "3.16 µM [falling, full curve]"}]}
{"smiles": "Cc1ccc(C)c(N2CCN(C(=O)c3cc4c(=O)n(Cc5ccco5)ccc4nc3C)CC2)c1", "values": [{"measurement": "AC50", "setting": "[1]", "result": "20 µM [falling, partial curve]"}]}
{"smiles": "COc1cccc(C(=O)Nc2cccc(NC(=O)c3ccc(Cl)cc3Cl)c2)c1", "values": [{"measurement": "AC50", "setting": "[1]", "result": "10 µM [falling, partial curve]"}]}
{"smiles": "CCC(C)Nc1sc(S(=O)(=O)CC)nc1S(=O)(=O)c1ccc(C)cc1", "note": "(stereo unspecified)", "values": [{"measurement": "AC50", "setting": "[1]", "result": "15.8 µM [falling, partial curve]"}]}
{"smiles": "COC(=O)c1[nH]c2ccccc2c1NC(=O)CN1CCN(c2cccc(Cl)c2)CC1", "values": [{"measurement": "AC50", "setting": "[1]", "result": "15.8 µM [falling, partial curve]"}]}
{"smiles": "Cc1cccc(NS(=O)(=O)c2ccc3c(c2)[C@H]2C=CC[C@H]2[C@@H](c2ccc(F)cc2)N3)c1", "values": [{"measurement": "AC50", "setting": "[1]", "result": "10 µM [falling, partial curve]"}]}
{"smiles": "CCCOc1ccc(-c2nn(-c3ccccc3)cc2C2NC(=O)NC(C)=C2C(=O)OC)cc1", "note": "(stereo unspecified)", "values": [{"measurement": "AC50", "setting": "[1]", "result": "25.1 µM [falling, partial curve]"}]}
{"smiles": "CCc1ccc(C(=O)c2cn(CC(=O)Nc3cc(OC)ccc3OC)c3ccc(C)cc3c2=O)cc1", "values": [{"measurement": "AC50", "setting": "[1]", "result": "25.1 µM [falling, partial curve]"}]}
{"smiles": "Cc1ccc(C)c(NC(=O)Cn2c(=O)nc(-c3ccccc3)c3ccccc32)c1", "values": [{"measurement": "AC50", "setting": "[1]", "result": "12.6 µM [falling, single point]"}]}
{"smiles": "COc1ccc(-c2nc(CCNC(=O)c3cccs3)cs2)cc1", "values": [{"measurement": "AC50", "setting": "[1]", "result": "39.8 µM [falling, single point]"}]}
{"smiles": "COc1ccc(NC(=O)CSC2=Nc3ccccc3C3=NC(CCC(=O)NCc4ccc(F)cc4)C(=O)N23)cc1Cl", "note": "(stereo unspecified)", "values": [{"measurement": "AC50", "setting": "[1]", "result": "15.8 µM [falling, partial curve]"}]}
{"smiles": "CCOC(=O)c1ccc(NC(=O)CC2Sc3ccc(C(F)(F)F)cc3NC2=O)cc1", "note": "(stereo unspecified)", "values": [{"measurement": "AC50", "setting": "[1]", "result": "20 µM [falling, single point]"}]}
{"smiles": "COc1cccc(N2CCN(C(=O)C3CCN(S(=O)(=O)c4cccc5nonc45)CC3)CC2)c1", "values": [{"measurement": "AC50", "setting": "[1]", "result": "10 µM [falling, partial curve]"}]}
{"smiles": "Cc1cc(NC(=O)CCNS(=O)(=O)c2ccc3c(c2)CCCC(=O)N3)ccc1Br", "values": [{"measurement": "AC50", "setting": "[1]", "result": "20 µM [falling, partial curve, poor fit]"}]}
{"smiles": "CCOC(=O)N1CCC(N2Cc3cccc(C(=O)NCc4ccccc4OC)c3C2=O)CC1", "values": [{"measurement": "AC50", "setting": "[1]", "result": "15.8 µM [falling, partial curve]"}]}
{"smiles": "Cc1ccc(-n2c3c(cc(-c4nc(-c5ccc(Cl)cc5)cs4)c2=O)C(=O)CC(C)(C)C3)cc1C", "values": [{"measurement": "AC50", "setting": "[1]", "result": "39.8 µM [falling, single point]"}]}
{"smiles": "COC(=O)c1ccc(CSc2nc(C)nc3sc(C)c(C)c23)o1", "values": [{"measurement": "AC50", "setting": "measured here: IkB-luc green channel", "result": "39.8 µM [rising, single point]"}, {"measurement": "AC50", "setting": "measured here: control luc red channel", "result": "31.6 µM [rising, single point]"}]}
{"smiles": "Cc1ccc(C)c(N2CCN(C(=O)CCc3nnc4n(CC(C)C)c(=O)c5ccccc5n34)CC2)c1", "values": [{"measurement": "AC50", "setting": "[1]", "result": "31.6 µM [falling, partial curve]"}]}
{"smiles": "CCn1cc(C(=O)N2CCN(c3cccc(Cl)c3)CC2)c2cc(OC)c(OC)cc2c1=O", "values": [{"measurement": "AC50", "setting": "[1]", "result": "15.8 µM [falling, partial curve]"}]}
{"smiles": "Cc1ccc(CN2CCc3nc(Nc4ccc5c(c4)OCCO5)ncc3C2)cc1", "values": [{"measurement": "AC50", "setting": "[1]", "result": "20 µM [falling, partial curve]"}]}
{"smiles": "Cc1cc(C)c(C#N)c(N2CCSCC2)n1", "values": [{"measurement": "AC50", "setting": "[1]", "result": "2.51 µM [rising, full curve, poor fit]"}]}
{"smiles": "CCOC(=O)c1ccc(NC(=O)CCn2c(=O)c3cccn3c3cccnc32)cc1", "values": [{"measurement": "AC50", "setting": "[1]", "result": "5.01 µM [rising, single point]"}]}
{"smiles": "O=C(Nc1ccc(F)cc1F)c1cc(-c2ccc(Cl)cc2)on1", "values": [{"measurement": "AC50", "setting": "[1]", "result": "0.2 µM [falling, full curve]"}]}
{"smiles": "CCc1cccc(NS(=O)(=O)c2ccc(-n3cccn3)cc2)c1", "values": [{"measurement": "AC50", "setting": "[1]", "result": "3.98 µM [falling, partial curve]"}]}
{"smiles": "O=c1cnn(-c2ccccc2)c(-c2ccccc2)c1", "values": [{"measurement": "AC50", "setting": "[1]", "result": "1 µM [rising, full curve, poor fit]"}]}
{"smiles": "COc1ccc(NC(=O)c2ccc3c(SCC(=O)O)c4c(nc3c2)CCCC4)c(OC)c1", "values": [{"measurement": "AC50", "setting": "[1]", "result": "25.1 µM [falling, partial curve]"}]}
{"smiles": "COC(=O)Oc1nsnc1N1CCOCC1", "values": [{"measurement": "AC50", "setting": "[1]", "result": "31.6 µM [rising, single point] [measured here: IkB-luc green channel]"}]}
